Test results reported in US6391305B1 (priority 1999, dated 2002).

Test: Boc solid-phase peptide synthesis; Boc-Leu-PAM resin; DCC and HOBT in methyl-2-pyrrolidinone
Conditions: whole synthesis, HPLC at 214 (Vydac C18); amino acid composition analysis; FAB mass spectral analysis, scale 0.5 mmol

With 2-HO-Ac-Ser-Ser-Ser-Chg-Ser-Leu-OH the “final HPLC purity” value was “at least 99% (HPLC)”.
